Data: the supplement of paper PMC10849652
Some of the results follow.

By UniProt entry, the sequences of proteins in these tests, tags left out. Where a name states a change or a piece, a line headed by the entry shows the natural chain unless it says otherwise.
UniProt O43426, whole entry, looked up: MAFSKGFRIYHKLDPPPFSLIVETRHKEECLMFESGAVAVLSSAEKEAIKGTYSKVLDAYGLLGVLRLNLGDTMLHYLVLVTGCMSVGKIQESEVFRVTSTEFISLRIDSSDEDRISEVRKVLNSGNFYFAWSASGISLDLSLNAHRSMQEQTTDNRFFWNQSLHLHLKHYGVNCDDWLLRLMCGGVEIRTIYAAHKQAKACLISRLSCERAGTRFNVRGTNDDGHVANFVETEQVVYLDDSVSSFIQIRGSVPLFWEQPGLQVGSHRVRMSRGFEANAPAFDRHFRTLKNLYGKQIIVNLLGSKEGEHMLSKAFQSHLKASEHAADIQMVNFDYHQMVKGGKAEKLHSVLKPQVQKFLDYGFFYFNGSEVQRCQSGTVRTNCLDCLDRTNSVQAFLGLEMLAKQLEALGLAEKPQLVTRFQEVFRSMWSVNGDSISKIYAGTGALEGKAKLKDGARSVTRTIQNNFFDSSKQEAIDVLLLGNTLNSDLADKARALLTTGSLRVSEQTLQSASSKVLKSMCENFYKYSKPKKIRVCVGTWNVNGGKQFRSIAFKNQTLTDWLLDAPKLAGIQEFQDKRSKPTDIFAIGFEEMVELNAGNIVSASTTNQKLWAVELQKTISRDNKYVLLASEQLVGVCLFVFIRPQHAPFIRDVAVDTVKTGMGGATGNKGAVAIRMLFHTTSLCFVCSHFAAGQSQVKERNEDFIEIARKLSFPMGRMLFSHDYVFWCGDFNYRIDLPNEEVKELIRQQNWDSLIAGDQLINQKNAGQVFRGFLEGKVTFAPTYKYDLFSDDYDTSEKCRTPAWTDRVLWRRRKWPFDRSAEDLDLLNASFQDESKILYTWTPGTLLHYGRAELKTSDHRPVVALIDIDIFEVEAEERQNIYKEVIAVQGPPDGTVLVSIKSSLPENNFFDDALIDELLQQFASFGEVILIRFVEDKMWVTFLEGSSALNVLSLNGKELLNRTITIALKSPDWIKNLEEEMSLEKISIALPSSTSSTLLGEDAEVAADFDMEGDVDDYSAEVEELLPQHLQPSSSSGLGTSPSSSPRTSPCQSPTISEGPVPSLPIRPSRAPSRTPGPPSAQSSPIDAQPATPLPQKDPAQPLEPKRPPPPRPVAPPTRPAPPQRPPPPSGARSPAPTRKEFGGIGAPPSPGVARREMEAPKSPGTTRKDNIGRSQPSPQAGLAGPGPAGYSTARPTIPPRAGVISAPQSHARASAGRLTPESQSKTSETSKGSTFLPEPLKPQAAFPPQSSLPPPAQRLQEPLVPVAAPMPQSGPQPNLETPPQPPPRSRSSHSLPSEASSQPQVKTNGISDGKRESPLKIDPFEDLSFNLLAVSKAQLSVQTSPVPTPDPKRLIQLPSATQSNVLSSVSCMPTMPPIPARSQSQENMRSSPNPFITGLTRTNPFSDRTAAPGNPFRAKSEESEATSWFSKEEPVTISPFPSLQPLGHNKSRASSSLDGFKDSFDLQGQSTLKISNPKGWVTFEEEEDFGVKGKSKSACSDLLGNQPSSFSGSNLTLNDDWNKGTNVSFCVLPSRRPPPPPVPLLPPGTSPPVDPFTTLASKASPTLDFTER
UniProt O43760: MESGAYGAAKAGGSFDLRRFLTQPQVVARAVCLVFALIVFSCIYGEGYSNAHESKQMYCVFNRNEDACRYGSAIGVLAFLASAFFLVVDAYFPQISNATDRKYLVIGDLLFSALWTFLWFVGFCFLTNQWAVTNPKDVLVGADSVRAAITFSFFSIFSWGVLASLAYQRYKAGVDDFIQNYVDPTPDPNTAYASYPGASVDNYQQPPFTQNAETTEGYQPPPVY
UniProt Q9NRL3: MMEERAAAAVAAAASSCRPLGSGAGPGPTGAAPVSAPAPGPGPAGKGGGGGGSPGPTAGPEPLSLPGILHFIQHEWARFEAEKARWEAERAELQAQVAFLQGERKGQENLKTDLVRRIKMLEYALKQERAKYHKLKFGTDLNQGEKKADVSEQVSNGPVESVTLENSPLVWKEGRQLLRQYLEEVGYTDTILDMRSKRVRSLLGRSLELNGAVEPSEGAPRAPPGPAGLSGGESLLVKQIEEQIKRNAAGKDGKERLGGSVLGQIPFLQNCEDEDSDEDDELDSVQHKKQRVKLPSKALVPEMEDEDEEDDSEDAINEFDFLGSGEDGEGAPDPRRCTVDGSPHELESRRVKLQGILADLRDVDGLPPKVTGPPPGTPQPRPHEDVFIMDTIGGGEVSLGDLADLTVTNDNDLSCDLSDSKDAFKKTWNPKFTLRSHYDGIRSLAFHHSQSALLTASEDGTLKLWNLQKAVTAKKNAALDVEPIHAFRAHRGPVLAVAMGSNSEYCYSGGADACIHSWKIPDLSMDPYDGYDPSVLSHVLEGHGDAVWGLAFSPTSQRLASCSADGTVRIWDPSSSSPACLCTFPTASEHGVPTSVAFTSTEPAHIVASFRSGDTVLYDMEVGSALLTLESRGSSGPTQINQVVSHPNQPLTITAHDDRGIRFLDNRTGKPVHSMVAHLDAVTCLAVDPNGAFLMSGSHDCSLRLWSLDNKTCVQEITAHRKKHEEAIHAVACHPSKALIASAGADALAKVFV
UniProt Q8IYB8: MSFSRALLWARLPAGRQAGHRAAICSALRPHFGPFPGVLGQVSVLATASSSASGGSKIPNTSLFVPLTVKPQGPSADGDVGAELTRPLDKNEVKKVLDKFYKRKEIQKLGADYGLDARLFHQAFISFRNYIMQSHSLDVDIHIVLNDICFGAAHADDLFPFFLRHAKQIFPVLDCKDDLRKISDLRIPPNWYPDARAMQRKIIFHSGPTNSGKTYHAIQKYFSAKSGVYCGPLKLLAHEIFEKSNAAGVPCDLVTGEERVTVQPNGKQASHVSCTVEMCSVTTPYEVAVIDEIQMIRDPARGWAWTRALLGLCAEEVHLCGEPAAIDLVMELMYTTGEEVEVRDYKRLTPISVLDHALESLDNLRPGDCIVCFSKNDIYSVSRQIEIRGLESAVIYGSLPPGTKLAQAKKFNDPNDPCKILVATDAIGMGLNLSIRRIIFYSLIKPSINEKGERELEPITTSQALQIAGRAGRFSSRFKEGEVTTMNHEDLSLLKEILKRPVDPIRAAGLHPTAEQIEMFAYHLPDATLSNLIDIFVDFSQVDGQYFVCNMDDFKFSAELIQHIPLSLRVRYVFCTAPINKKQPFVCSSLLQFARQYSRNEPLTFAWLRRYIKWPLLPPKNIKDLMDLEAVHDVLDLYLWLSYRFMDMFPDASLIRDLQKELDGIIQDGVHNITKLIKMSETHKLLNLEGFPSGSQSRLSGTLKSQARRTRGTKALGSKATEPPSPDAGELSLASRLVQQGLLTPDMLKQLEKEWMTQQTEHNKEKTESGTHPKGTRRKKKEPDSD
UniProt Q13148, whole entry, looked up: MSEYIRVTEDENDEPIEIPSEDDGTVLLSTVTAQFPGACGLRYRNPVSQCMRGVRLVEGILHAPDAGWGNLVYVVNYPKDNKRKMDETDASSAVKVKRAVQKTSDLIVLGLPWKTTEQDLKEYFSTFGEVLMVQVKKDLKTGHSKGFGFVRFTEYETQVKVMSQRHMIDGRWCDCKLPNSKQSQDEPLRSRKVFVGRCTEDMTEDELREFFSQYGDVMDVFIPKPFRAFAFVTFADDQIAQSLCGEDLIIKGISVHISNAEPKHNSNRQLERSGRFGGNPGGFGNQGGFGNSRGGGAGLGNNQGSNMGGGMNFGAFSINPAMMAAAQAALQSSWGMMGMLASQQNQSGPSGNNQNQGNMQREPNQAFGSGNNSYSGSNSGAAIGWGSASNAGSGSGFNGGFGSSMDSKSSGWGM
UniProt Q9Y2Z0: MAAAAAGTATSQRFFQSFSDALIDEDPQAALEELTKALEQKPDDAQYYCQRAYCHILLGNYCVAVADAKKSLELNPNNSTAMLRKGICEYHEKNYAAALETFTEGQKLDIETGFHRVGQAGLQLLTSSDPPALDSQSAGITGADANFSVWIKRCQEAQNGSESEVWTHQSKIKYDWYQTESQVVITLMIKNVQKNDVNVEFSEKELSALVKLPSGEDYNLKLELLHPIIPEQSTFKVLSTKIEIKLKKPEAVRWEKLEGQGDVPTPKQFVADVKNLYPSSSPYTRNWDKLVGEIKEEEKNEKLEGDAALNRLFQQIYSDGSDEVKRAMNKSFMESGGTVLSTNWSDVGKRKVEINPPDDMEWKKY
UniProt Q15750: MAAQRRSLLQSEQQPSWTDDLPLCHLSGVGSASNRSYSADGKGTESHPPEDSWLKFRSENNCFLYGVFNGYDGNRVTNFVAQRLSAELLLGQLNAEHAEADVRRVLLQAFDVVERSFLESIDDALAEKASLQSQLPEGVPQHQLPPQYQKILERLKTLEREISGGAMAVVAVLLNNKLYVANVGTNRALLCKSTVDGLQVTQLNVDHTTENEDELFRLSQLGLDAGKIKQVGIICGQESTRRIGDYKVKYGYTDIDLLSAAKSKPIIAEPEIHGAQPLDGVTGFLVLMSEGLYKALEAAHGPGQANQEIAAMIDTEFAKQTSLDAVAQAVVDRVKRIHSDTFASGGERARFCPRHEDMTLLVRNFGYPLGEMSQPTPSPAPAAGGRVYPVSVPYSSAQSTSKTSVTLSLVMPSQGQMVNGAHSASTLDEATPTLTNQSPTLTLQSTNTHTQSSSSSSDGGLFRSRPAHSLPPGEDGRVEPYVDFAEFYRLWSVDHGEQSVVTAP
UniProt Q8N300: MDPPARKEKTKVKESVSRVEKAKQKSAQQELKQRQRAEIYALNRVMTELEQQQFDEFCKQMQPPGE
UniProt Q7Z422: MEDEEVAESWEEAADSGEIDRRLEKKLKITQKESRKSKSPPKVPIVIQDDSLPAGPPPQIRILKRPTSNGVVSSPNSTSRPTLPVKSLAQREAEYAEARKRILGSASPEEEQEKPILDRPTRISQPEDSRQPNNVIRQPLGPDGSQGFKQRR
UniProt Q86TM6, whole entry, looked up: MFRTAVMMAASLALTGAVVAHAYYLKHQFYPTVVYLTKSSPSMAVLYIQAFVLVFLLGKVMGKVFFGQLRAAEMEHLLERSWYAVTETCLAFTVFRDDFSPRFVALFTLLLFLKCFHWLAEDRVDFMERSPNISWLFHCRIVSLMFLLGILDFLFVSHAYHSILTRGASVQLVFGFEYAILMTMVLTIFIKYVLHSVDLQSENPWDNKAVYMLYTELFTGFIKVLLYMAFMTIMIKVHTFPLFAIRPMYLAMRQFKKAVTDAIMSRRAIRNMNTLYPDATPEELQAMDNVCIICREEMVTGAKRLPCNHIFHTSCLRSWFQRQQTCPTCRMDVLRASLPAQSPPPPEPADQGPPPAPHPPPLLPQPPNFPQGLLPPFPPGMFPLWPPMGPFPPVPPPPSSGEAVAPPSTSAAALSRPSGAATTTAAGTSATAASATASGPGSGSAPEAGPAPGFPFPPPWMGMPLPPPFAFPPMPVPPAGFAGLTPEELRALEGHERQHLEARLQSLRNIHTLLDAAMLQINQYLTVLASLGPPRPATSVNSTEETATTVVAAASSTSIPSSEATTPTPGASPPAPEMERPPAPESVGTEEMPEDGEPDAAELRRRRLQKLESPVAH
UniProt Q86Y82: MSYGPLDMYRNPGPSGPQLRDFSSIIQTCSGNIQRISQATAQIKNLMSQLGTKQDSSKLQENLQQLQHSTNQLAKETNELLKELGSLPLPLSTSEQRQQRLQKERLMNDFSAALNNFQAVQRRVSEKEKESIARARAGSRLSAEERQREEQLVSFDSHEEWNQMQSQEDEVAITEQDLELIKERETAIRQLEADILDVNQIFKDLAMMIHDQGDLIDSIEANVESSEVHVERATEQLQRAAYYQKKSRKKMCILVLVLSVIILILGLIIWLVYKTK
UniProt Q9ULQ0: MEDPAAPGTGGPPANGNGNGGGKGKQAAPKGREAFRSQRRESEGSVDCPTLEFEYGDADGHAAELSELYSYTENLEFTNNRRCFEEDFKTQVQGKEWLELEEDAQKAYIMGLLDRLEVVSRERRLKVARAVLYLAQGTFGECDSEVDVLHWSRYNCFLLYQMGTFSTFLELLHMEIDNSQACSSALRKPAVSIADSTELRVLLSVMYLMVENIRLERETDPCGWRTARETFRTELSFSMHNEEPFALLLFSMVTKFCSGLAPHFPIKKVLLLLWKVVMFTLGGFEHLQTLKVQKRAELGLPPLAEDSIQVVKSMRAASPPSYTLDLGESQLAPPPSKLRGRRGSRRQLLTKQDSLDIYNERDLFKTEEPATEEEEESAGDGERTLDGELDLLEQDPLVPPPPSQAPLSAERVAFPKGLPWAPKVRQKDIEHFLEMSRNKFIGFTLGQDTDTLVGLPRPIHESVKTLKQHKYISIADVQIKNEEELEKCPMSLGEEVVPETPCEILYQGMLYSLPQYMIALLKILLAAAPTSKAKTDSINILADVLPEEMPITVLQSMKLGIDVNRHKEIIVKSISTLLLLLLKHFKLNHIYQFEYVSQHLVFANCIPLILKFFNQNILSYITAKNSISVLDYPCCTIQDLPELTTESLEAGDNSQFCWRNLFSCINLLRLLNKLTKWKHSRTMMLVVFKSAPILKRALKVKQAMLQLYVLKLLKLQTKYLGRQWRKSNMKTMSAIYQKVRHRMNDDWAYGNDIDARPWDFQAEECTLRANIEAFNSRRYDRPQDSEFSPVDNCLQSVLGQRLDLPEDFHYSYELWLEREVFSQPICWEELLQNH

Compound: O=C(CCCCCCNC(=O)c1cnc(N(c2ccccc2)c2ccccc2Cl)nc1)NO [citarinostat]
Experiment: log2 fold change, soluble protein after heating vs DMSO (PISA); higher = thermal stabilisation; K562 cells, 10 uM, 30 min; active = over 0.2 and 3.5 SD of the protein, either way, in both replicates (recomputed)
Procedure, shortened: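 K562 cells at 2×10^6 cells/mL were given 10 μM compound for 30 min. Aliquots then went through 3 min of heating across 48°C-58°C, were pooled, and were extracted in PBS with 0.5% NP-40 at 4°C, and the supernatant after 21,000xg for 90 min was quantified by TMTpro 16plex LC-MS/MS with channel sums equalised. Thermal stability relative to control samples, from duplicates, is given as log2 fold change.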

log2 fold change, inactive:
TATDN3 isoform 3 (UniProt Q17R31) 0.072
SYNJ1 (UniProt O43426) -0.036
SYNJ2BP-COX16, A0A087WYV9 -0.031
STX10 (UniProt O60499) -0.019
SYNGR2 (UniProt O43760) -0.022
SYNRG (UniProt Q9UMZ2) 0.045
SUCLG2 (UniProt Q96I99) 0.042
TAF2 (UniProt Q6P1X5) 0
STT3A (UniProt P46977) 0.018
SUCO (UniProt Q9UBS9) -0.172
STT3B (UniProt Q8TCJ2) 0.027
TAGLN2 isoform 2 (UniProt P37802) 0.06
STRN4 isoform 3 (UniProt Q9NRL3) 0.031
STRIP1 (UniProt Q5VSL9) 0.103
TAF10 (UniProt Q12962) 0.038
SUPV3L1 (UniProt Q8IYB8) 0.035
TACO1 (UniProt Q9BSH4) 0.189
SYAP1 (UniProt Q96A49) 0.06
TARDBP (UniProt Q13148) -0.065
STXBP1 (UniProt P61764) 0.077
TAPT1 (UniProt Q6NXT6) 0.017
TACC3 (UniProt Q9Y6A5) -0.012
STX5 (UniProt Q13190) 0.044
STMN1 (UniProt P16949) -0.058
TAF7 (UniProt Q15545) -0.003
SUGT1 (UniProt Q9Y2Z0) 0.034
TAB1 (UniProt Q15750) 0.042
SVBP (UniProt Q8N300) -0.056
SYNCRIP (UniProt O60506) -0.116
SZRD1 (UniProt Q7Z422) -0.016
TARSL2 (UniProt A2RTX5) 0.008
SYVN1 (UniProt Q86TM6) 0.031
TAF8 isoform 2 (UniProt Q7Z7C8) -0.062
STX16 isoform 2 (UniProt O14662) -0.025
TAF15 (UniProt Q92804) -0.021
TANGO2 isoform 4 (UniProt Q6ICL3) 0.067
STX12 (UniProt Q86Y82) 0.017
STRIP2 (UniProt Q9ULQ0) 0.07
STRADA (UniProt Q7RTN6) 0.034

2 entries picked at random from those above, as already listed:
log2 fold change, inactive:
SYNJ1 (UniProt O43426) -0.036
SYNRG (UniProt Q9UMZ2) 0.045
